In paper PMC8995424 one finds binding data, which are given here for 5 substances.

Protein sequences, listed by entry. Tags and fused reporters are not part of them. Residues count along the entry.
UniProt P19491, residues 22-883: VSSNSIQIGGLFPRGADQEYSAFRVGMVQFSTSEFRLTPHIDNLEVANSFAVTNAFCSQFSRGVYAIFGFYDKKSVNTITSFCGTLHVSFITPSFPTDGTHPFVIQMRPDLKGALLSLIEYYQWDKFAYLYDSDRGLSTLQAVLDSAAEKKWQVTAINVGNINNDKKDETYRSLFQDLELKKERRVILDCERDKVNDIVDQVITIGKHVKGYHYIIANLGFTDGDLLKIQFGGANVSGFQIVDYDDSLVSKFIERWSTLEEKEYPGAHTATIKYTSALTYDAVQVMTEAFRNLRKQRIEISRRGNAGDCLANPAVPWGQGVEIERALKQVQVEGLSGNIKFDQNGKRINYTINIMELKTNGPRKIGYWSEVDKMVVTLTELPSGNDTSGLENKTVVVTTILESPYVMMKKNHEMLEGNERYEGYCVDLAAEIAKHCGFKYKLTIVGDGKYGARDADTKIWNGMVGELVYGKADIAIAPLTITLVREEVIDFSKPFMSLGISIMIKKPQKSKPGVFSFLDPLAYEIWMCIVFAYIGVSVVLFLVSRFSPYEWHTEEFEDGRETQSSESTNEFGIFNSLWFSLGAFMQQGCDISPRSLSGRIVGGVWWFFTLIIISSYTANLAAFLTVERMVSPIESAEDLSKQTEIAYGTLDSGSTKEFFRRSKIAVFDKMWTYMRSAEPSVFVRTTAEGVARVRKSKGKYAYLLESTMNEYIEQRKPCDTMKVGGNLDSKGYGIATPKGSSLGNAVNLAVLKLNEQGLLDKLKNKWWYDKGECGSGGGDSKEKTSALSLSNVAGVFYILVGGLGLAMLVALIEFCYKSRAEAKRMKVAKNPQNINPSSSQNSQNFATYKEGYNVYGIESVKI
UniProt P19493, residues 21-902: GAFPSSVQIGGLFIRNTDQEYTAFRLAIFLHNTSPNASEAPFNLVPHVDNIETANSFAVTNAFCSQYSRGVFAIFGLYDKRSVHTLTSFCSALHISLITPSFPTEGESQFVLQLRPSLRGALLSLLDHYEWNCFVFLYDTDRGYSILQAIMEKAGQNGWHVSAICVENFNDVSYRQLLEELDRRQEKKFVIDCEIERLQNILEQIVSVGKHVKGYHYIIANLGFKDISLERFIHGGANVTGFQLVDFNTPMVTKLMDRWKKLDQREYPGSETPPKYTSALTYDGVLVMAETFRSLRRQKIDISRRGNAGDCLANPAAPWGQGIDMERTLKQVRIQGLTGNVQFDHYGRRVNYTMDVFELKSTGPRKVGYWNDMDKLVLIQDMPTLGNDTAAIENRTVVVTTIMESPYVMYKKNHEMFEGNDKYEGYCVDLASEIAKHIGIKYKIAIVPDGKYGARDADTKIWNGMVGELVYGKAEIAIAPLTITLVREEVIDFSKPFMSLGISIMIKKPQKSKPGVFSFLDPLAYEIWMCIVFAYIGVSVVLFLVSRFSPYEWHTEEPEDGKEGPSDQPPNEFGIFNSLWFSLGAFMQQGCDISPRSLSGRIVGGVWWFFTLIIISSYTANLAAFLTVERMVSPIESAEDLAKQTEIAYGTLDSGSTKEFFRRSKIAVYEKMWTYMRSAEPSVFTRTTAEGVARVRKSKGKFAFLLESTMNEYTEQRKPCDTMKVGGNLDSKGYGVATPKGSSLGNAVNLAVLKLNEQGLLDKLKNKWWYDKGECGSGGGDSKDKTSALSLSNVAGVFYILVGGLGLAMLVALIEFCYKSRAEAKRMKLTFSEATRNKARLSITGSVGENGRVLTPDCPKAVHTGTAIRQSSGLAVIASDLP
UniProt P19490, residues 19-907: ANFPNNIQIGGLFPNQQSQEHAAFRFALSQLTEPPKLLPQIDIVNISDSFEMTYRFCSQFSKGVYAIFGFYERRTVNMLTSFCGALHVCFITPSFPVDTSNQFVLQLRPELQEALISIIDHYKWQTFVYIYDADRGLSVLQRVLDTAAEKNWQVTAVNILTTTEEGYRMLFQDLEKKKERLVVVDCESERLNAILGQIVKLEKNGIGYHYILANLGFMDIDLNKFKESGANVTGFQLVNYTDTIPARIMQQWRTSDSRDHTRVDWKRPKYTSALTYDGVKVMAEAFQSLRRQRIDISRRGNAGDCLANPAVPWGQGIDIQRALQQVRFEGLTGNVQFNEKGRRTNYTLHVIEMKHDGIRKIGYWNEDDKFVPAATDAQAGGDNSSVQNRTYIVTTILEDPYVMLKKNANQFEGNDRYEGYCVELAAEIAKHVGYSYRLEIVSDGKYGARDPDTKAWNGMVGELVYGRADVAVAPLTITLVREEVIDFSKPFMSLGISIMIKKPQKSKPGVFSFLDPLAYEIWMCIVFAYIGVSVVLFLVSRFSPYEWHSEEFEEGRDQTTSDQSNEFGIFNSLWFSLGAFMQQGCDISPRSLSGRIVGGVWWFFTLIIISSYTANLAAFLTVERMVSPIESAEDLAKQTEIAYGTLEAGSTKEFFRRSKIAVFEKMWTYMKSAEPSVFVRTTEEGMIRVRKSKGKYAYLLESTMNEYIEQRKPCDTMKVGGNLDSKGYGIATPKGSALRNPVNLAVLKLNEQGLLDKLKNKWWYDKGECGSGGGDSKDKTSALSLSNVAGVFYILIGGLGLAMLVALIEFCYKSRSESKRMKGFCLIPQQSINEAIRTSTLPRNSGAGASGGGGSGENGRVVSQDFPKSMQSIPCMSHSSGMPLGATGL
UniProt P19492, residues 23-888: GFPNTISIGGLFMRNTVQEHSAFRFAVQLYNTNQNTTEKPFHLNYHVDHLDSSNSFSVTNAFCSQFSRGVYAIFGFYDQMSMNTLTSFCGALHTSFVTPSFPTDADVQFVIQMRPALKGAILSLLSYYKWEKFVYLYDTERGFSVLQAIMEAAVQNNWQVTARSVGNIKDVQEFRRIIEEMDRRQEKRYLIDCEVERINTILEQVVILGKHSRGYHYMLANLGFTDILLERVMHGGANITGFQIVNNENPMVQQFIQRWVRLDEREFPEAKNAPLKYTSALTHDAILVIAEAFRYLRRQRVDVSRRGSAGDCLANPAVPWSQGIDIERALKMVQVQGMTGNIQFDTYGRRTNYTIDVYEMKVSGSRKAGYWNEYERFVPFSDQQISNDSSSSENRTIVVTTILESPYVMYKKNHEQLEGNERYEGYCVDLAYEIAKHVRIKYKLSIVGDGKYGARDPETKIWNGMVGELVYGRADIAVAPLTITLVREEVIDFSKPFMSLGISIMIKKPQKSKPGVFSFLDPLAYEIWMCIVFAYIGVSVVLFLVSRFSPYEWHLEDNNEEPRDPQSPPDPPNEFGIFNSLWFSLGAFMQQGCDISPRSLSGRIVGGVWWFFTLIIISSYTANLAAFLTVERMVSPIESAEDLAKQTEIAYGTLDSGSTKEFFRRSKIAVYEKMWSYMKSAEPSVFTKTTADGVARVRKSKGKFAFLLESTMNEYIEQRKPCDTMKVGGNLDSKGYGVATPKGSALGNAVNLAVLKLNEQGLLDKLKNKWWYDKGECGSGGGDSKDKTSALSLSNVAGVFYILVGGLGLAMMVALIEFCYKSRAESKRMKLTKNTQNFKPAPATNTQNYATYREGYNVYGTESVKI

Numbering of substitutions follows the chain as printed. These are yes or no findings as the source states them, for the method shown. Binding seen in cells or lysates may run through a third protein. Some results given as binding are weak or reduced against the parent protein; the word gives no strength. Where a sequence is shown, tags or fusion partners need not be part of it.

The target of one test is T1, GST-Spastin WT (rat) (UniProt B2RYN7).
T1 sequence: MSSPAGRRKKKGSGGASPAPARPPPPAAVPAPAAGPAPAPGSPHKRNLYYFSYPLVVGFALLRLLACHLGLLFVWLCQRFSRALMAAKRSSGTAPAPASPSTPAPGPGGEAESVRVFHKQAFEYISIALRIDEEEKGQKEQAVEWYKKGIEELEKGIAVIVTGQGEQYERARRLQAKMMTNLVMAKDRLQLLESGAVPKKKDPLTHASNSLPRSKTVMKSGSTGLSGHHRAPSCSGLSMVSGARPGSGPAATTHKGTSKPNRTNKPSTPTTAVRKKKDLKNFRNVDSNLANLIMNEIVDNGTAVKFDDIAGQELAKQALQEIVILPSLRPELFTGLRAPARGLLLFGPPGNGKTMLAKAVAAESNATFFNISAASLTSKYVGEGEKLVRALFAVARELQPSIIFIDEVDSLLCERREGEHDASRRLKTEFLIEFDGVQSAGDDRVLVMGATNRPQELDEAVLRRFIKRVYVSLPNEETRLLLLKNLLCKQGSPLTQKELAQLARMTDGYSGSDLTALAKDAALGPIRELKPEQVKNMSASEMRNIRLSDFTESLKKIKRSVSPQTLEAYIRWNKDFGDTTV
Nature of the test: pull-down; 5 ug GST-fusion protein (bait) incubated with about 400 ug brain protein from 1-month-old SD rats, gentle rotation, 4°C overnight; bound proteins eluted and analysed by western blotting; only the target purified.

The next test addresses T2, GST-Spastin QmD (rat) (UniProt B2RYN7).
T2 sequence: T1 sequence with S210D, S233D, T271D, S562D
The description is as above.

A further test concerns the target T3, GFP-Spastin WT (rat) (UniProt B2RYN7).
T3 sequence: T1 sequence
Nature of the test: co-IP; HEK293T cells co-transfected with Flag-GluA2 and GFP-Spastin or its mutants, 48 h; lysis in 25 mM Tris-Cl pH 7.4, 100 mM NaCl, 1 mM EDTA, 0.5% NP40; anti-GFP agarose beads, 4°C, 3 h; blots with anti-Flag and anti-GFP.

For a further test, the target named is T4, GFP-Spastin R464C (rat) (UniProt B2RYN7).
T4 sequence: T1 sequence with R464C
The description is as above.

The target of another test is T5, GFP-Spastin K353A (rat) (UniProt B2RYN7).
T5 sequence: T1 sequence with K353A
Described as above.

Another test addresses T6, GFP-Spastin QmD (rat) (UniProt B2RYN7).
T6 sequence: T1 sequence with S210D, S233D, T271D, S562D
The test is described as above.

As for “AMPA receptor subunit GluA2 (from UniProt P19491 22-883)”, the binding result with GST-Spastin WT (rat) and with GST-Spastin QmD (rat) was “binds” throughout.
On to “AMPA receptor subunit GluA4 (from UniProt P19493 21-902)”, for which, in the test with GST-Spastin WT (rat), the binding result is reported as “binds”.
Still for that read-out and setting: for “AMPA receptor subunit GluA1 (from UniProt P19490 19-907)” the value was “binds”; for “AMPA receptor subunit GluA3 (from UniProt P19492 23-888)”, “binds”.
On to “Flag-GluA2 (from UniProt P19491 22-883) (receptor)”, for which the binding result with GFP-Spastin WT (rat), with GFP-Spastin R464C (rat), in the test with GFP-Spastin K353A (rat) and in the test with GFP-Spastin QmD (rat) was “binds” each time.
